# According to the supplement of paper PMC10849652:
# By UniProt entry, the sequences of proteins in these tests, tags left out. Where a name states a change or a piece, a line headed by the entry shows the natural chain unless it says otherwise.
# UniProt P49247: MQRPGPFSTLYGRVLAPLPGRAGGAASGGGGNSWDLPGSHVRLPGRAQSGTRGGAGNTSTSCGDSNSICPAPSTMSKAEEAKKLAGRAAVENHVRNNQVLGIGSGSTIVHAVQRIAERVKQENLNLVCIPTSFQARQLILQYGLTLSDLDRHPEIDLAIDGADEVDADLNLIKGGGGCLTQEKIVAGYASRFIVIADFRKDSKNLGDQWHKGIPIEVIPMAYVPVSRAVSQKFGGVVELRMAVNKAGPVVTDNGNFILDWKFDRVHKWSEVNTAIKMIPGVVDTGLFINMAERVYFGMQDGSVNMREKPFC
# UniProt P51812, whole entry, looked up: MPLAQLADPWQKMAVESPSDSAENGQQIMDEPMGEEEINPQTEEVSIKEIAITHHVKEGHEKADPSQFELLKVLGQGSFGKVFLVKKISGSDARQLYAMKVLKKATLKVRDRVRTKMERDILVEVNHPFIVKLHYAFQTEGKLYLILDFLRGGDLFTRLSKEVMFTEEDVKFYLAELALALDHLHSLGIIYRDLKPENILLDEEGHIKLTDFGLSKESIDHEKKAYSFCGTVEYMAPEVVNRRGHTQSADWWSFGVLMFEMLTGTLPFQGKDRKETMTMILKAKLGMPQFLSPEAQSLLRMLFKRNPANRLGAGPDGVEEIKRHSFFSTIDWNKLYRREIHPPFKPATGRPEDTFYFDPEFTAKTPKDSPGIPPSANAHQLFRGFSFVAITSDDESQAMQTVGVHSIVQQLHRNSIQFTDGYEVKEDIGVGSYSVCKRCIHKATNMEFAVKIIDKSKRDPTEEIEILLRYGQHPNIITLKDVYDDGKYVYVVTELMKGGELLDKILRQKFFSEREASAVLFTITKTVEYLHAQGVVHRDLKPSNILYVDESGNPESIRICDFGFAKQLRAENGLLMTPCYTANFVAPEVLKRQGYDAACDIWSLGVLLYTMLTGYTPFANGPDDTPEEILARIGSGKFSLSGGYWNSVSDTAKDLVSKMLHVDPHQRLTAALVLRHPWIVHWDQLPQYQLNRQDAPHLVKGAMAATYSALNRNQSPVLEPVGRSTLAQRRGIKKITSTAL
# UniProt Q13464: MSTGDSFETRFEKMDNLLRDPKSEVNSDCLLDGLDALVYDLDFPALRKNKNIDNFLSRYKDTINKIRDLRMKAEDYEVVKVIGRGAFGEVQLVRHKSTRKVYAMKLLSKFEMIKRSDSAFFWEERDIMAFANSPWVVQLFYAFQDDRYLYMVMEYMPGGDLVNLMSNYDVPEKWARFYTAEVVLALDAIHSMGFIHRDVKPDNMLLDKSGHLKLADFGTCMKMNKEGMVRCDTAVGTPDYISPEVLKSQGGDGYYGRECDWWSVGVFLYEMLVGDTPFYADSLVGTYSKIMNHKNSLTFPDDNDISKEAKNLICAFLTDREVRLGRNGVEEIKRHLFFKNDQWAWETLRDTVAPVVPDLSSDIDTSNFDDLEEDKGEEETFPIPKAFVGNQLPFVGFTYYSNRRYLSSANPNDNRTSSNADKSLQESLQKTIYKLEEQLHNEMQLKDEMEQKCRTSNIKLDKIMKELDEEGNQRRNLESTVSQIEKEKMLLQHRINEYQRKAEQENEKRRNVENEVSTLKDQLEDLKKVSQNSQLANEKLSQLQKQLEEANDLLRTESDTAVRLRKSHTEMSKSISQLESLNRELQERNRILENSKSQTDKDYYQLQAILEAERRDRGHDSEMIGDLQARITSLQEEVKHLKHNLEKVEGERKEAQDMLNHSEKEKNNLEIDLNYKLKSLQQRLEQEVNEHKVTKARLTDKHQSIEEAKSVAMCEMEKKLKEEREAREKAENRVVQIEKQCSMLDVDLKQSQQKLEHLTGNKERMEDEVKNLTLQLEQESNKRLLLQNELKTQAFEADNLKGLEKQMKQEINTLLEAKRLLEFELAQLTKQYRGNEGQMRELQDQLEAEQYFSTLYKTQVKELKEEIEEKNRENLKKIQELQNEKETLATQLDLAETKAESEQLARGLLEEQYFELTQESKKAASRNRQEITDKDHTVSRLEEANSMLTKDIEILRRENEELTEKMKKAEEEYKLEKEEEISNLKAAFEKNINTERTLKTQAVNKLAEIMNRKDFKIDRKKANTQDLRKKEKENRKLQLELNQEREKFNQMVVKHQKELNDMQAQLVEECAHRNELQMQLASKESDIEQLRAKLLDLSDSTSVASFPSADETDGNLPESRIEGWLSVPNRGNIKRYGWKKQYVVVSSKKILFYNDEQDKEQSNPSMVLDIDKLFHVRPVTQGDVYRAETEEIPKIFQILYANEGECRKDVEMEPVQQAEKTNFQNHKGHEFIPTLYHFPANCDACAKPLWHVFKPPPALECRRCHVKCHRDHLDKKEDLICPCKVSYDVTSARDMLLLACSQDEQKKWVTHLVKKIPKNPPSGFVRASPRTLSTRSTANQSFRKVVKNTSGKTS
# UniProt Q8N122, whole entry, looked up: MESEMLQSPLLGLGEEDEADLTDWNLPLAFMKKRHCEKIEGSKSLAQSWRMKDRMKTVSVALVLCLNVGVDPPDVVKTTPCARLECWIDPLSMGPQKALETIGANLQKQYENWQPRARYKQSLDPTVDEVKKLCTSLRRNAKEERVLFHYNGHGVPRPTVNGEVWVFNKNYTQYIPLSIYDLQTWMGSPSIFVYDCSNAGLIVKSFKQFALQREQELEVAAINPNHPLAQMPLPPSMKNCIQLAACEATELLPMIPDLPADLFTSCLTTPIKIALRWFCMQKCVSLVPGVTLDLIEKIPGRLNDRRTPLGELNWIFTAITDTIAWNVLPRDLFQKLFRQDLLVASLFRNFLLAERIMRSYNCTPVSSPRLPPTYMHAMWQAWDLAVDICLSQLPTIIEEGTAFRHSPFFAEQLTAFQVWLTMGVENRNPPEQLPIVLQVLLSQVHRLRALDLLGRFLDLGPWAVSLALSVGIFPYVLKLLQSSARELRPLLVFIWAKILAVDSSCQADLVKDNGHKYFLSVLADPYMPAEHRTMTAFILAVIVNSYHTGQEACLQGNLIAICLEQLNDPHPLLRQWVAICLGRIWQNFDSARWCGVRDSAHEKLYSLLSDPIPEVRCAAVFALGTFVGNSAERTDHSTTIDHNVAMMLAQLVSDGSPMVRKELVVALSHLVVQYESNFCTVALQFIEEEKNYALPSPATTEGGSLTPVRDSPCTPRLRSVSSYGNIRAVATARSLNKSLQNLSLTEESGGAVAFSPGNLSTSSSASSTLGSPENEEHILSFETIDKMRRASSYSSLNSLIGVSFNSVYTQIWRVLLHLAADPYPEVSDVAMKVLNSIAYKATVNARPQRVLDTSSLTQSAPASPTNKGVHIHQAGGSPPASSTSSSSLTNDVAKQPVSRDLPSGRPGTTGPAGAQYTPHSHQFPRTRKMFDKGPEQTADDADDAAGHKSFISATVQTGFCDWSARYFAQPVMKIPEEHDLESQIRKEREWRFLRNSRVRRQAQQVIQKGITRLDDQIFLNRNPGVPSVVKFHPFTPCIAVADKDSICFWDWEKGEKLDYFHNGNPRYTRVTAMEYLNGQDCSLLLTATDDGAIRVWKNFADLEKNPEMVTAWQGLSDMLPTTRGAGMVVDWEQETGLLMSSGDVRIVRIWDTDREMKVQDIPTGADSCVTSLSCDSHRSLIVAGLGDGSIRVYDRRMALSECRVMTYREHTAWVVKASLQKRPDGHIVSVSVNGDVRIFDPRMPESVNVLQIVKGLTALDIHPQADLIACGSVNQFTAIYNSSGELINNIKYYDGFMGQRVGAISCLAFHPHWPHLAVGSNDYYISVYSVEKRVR
# UniProt Q7LG56, whole entry, looked up: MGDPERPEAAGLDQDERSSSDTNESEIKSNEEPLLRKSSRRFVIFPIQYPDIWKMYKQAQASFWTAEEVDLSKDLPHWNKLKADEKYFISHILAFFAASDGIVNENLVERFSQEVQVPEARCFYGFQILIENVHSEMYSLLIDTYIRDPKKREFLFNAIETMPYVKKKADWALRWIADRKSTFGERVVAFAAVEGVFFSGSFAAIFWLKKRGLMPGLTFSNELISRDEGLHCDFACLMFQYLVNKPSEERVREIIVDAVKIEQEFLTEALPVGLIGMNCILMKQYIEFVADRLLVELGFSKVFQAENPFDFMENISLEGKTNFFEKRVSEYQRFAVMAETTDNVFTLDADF
# UniProt Q96S38: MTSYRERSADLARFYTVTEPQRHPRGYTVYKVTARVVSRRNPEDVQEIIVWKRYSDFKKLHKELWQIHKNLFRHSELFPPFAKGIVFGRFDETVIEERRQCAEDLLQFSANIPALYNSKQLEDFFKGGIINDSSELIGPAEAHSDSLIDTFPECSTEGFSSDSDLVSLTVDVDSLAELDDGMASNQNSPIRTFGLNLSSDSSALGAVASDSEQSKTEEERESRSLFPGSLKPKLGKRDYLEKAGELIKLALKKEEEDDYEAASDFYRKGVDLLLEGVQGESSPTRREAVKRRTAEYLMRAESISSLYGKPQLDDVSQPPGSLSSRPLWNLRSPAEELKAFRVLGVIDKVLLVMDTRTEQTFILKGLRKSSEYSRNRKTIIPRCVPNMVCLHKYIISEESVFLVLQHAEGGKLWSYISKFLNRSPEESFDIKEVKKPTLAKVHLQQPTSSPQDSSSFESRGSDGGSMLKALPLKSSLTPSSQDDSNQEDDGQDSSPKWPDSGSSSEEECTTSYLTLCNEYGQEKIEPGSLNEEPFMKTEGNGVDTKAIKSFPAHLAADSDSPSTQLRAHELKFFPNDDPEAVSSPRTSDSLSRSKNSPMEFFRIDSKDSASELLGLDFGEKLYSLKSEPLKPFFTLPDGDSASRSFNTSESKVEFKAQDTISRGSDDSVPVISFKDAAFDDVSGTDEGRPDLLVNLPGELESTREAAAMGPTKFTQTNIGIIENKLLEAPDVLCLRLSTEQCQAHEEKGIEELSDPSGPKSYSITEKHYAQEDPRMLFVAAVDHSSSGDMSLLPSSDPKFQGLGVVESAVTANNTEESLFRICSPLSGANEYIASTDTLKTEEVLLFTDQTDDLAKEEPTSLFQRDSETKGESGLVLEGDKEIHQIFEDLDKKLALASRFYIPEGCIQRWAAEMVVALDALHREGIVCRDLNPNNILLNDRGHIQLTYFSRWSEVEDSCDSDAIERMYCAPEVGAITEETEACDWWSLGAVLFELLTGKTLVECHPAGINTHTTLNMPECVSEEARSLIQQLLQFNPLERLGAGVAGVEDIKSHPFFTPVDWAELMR
# UniProt O75116: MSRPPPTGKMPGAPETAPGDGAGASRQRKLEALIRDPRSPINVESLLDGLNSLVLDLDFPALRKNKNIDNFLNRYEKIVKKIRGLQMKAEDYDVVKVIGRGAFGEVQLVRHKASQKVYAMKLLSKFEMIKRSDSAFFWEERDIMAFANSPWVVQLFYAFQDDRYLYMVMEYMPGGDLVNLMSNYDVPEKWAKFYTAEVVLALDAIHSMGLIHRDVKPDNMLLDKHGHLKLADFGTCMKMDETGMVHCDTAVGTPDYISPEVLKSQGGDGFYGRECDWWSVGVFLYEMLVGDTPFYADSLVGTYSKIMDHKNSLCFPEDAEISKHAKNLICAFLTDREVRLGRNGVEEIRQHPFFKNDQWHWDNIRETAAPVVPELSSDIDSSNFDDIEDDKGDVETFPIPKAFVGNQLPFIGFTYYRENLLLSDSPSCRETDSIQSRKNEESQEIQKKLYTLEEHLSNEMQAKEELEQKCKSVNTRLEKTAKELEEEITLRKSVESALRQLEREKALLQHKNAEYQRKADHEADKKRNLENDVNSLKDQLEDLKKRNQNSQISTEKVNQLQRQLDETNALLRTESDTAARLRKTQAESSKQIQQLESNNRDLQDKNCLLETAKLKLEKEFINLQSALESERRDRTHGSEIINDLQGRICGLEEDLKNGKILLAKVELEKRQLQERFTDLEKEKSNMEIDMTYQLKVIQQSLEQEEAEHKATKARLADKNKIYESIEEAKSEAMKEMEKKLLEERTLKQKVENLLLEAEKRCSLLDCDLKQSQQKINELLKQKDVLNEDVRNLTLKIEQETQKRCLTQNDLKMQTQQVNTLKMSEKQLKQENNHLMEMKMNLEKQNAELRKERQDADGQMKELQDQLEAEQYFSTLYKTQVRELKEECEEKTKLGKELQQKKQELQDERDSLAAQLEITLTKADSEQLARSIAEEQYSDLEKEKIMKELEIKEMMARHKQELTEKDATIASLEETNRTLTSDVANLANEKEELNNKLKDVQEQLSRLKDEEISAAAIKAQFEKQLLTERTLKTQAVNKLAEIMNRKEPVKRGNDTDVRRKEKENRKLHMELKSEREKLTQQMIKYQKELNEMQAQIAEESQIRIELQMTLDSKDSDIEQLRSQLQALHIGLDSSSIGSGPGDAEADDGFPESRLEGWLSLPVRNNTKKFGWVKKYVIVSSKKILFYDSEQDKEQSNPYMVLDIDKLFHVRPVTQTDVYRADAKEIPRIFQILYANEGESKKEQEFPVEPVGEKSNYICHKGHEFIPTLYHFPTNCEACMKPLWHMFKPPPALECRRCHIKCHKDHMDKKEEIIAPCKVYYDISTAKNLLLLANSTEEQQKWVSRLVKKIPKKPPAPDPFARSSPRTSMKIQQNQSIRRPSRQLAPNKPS
# The list shows a part of the results.
# Columns and labels:
# Assay in all cases: log2 fold change, soluble protein after heating vs DMSO (PISA); higher = thermal stabilisation; K562 cells, 10 uM, 30 min; active = over 0.2 and 3.5 SD of the protein, either way, in both replicates (recomputed)
# bafetinib = compound: Cc1ccc(NC(=O)c2ccc(CN3CC[C@H](N(C)C)C3)c(C(F)(F)F)c2)cc1Nc1nccc(-c2cncnc2)n1 [bafetinib]
# Procedure, shortened: (§1)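 Thermal stability values are relative to control samples and come from duplicates. They are expressed as log2 fold changes. For measurement, K562 cells (2×10^6 cells/mL) received 10 μM compound for 30 min, and aliquots were heated for 3 min over 48°C-58°C, pooled, and extracted at 4°C in PBS with 0.5% NP-40. Soluble protein, the supernatant after 21,000xg for 90 min, was quantified by TMTpro 16plex LC-MS/MS with equalised channel sums.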
# [1] = compound: Cc1cccc(CC(=O)N2CCc3c2ccc(-c2cn(C)c4ncnc(N)c24)c3F)n1
# Procedure, shortened: as §1
# nilotinib = compound: Cc1cn(-c2cc(NC(=O)c3ccc(C)c(Nc4nccc(-c5cccnc5)n4)c3)cc(C(F)(F)F)c2)cn1 [nilotinib]
# Procedure, shortened: as §1
# [2] = compound: Cc1nc(Nc2n[nH]c3c2CN(C(=O)N[C@H](CN(C)C)c2ccccc2)C3(C)C)c2sccc2n1
# Procedure, shortened: as §1
# dasatinib = compound: Cc1nc(Nc2ncc(C(=O)Nc3c(C)cccc3Cl)s2)cc(N2CCN(CCO)CC2)n1 [dasatinib]
# Procedure, shortened: as §1
# [3] = compound: Cc1ncc(-c2ccnc(Nc3ccc(S(C)(=O)=O)cc3)n2)n1C(C)C
# Procedure, shortened: as §1
# [4] = compound: Cn1cc(-c2ccc3c(c2)CCN3C(=O)Cc2cccc(C(F)(F)F)c2)c2c(N)ncnc21
# Procedure, shortened: as §1
# [5] = compound: Cn1cc(-c2ccc3nnc(C(F)(F)c4ccc5ncccc5c4)n3n2)cn1
# Procedure, shortened: as §1
# tipifarnib = compound: Cn1cncc1[C@@](N)(c1ccc(Cl)cc1)c1ccc2c(c1)c(-c1cccc(Cl)c1)cc(=O)n2C [tipifarnib]
# Procedure, shortened: as §1
# mubritinib = compound: FC(F)(F)c1ccc(/C=C/c2nc(COc3ccc(CCCCn4ccnn4)cc3)co2)cc1 [mubritinib]
# Procedure, shortened: as §1
Target,log2 fold change (bafetinib),log2 fold change [1],log2 fold change (nilotinib),log2 fold change [2],log2 fold change (dasatinib),log2 fold change [3],log2 fold change [4],log2 fold change [5],log2 fold change (tipifarnib),log2 fold change (mubritinib)
RPL6 (UniProt Q02878),inactive: 0.609,inactive: 0.001,inactive: 0.006,inactive: 0.277,inactive: 0.324,inactive: -0.028,inactive: -0.488,inactive: -0.254,inactive: 0.412,inactive: -0.388
RPS2 (UniProt P15880),inactive: 0.284,inactive: 0,inactive: 0,inactive: 0.198,inactive: 0.13,inactive: -0.035,inactive: -0.216,inactive: -0.105,inactive: 0.077,inactive: -0.095
RPIA (UniProt P49247),inactive: -0.039,inactive: -0.003,inactive: 0,inactive: 0.006,inactive: -0.014,inactive: -0.017,inactive: 0.051,inactive: 0.015,inactive: -0.018,inactive: 0.022
RRAGA (UniProt Q7L523),inactive: -0.011,inactive: 0.097,inactive: 0.033,inactive: 0.024,inactive: -0.133,inactive: -0.051,inactive: 0.053,inactive: 0.055,inactive: 0.142,inactive: -0.02
RPL23A (UniProt P62750),inactive: 0.315,inactive: -0.001,inactive: 0.008,inactive: 0.155,inactive: 0.167,inactive: -0.027,inactive: -0.267,inactive: -0.15,inactive: 0.106,inactive: -0.179
RNH1 (UniProt P13489),inactive: -0.032,inactive: 0.035,inactive: -0.05,inactive: 0.019,inactive: -0.028,inactive: -0.032,inactive: 0.037,inactive: 0.018,inactive: -0.072,inactive: 0.032
RPS6KA3 (UniProt P51812),inactive: -0.065,inactive: 0.046,inactive: 0.035,active: -0.798,inactive: -0.195,inactive: -0.019,inactive: -0.022,inactive: 0.031,inactive: -0.028,inactive: 0.02
RPL29 (UniProt P47914),inactive: 0.535,inactive: -0.005,inactive: 0.025,inactive: 0.082,inactive: 0.219,inactive: -0.014,inactive: -0.427,inactive: -0.273,inactive: 0.167,inactive: -0.374
ROCK1 (UniProt Q13464),inactive: -0.017,inactive: -0.006,inactive: -0.03,inactive: 0.007,inactive: -0.028,inactive: 0.034,inactive: -0.006,inactive: 0.01,inactive: -0.037,inactive: 0.062
RPL13A (UniProt P40429),inactive: 0.597,inactive: 0.018,inactive: 0.012,inactive: 0.273,inactive: 0.293,inactive: -0.04,inactive: -0.576,inactive: -0.296,inactive: 0.345,inactive: -0.35
RPTOR (UniProt Q8N122),inactive: -0.005,inactive: 0.034,inactive: -0.085,inactive: -0.103,inactive: -0.103,inactive: -0.045,inactive: -0.107,inactive: 0.009,inactive: -0.062,inactive: 0.033
RPL13 (UniProt P26373),inactive: 0.48,inactive: 0.014,inactive: -0.01,inactive: 0.211,inactive: 0.318,inactive: -0.066,inactive: -0.68,inactive: -0.259,inactive: 0.42,inactive: -0.319
RPL10A (UniProt P62906),inactive: 0.611,inactive: 0.036,inactive: 0.007,inactive: 0.321,inactive: 0.318,inactive: -0.022,inactive: -0.571,inactive: -0.219,inactive: 0.414,inactive: -0.342
RRM2B isoform 6 (UniProt Q7LG56),inactive: -0.024,inactive: -0.04,inactive: -0.003,inactive: 0.028,inactive: 0.068,inactive: -0.006,inactive: 0.026,inactive: 0.053,inactive: 0.09,inactive: 0.032
RPL5 (UniProt P46777),inactive: 0.179,inactive: 0,inactive: 0.067,inactive: 0.118,inactive: 0.185,inactive: -0.017,inactive: -0.247,inactive: -0.127,inactive: 0.094,inactive: -0.163
RPS6KC1 (UniProt Q96S38),inactive: -0.247,inactive: 0.238,inactive: 0.009,inactive: -0.147,inactive: 0.031,inactive: 0.009,inactive: 0.042,inactive: -0.056,inactive: 0.037,inactive: 0.035
RPS25 (UniProt P62851),inactive: 0.259,inactive: -0.007,inactive: 0.015,inactive: 0.174,inactive: 0.07,inactive: -0.032,inactive: -0.177,inactive: -0.077,inactive: 0.062,inactive: -0.068
RPL35 (UniProt P42766),inactive: 0.393,inactive: -0.018,inactive: 0.011,inactive: 0.261,inactive: 0.226,inactive: -0.042,inactive: -0.455,inactive: -0.168,inactive: 0.258,inactive: -0.214
RPS8 (UniProt P62241),inactive: 0.344,inactive: 0.007,inactive: 0.046,inactive: 0.202,inactive: 0.161,inactive: -0.037,inactive: -0.226,inactive: -0.146,inactive: 0.089,inactive: -0.151
RPL35A (UniProt P18077),inactive: 0.56,inactive: -0.002,inactive: -0.004,inactive: 0.321,inactive: 0.33,inactive: -0.042,inactive: -0.634,inactive: -0.212,inactive: 0.481,inactive: -0.338
RPL3 (UniProt P39023),inactive: 0.574,inactive: -0.001,inactive: 0.009,inactive: 0.305,inactive: 0.362,inactive: -0.04,inactive: -0.586,inactive: -0.258,inactive: 0.369,inactive: -0.361
RPL15 (UniProt P61313),inactive: 0.565,inactive: 0.017,inactive: -0.008,inactive: 0.217,inactive: 0.374,inactive: -0.058,inactive: -0.674,inactive: -0.293,inactive: 0.494,inactive: -0.353
RPL23 (UniProt P62829),inactive: 0.328,inactive: -0.023,inactive: 0.025,inactive: 0.259,inactive: 0.141,inactive: -0.008,inactive: -0.234,inactive: -0.092,inactive: 0.083,inactive: -0.112
RPL36A (UniProt P83881),inactive: 0.386,inactive: -0.001,inactive: -0.013,inactive: 0.112,inactive: 0.173,inactive: -0.07,inactive: -0.325,inactive: -0.174,inactive: 0.222,inactive: -0.255
RPAP3 (UniProt Q9H6T3),inactive: 0.072,inactive: 0.054,inactive: -0.01,inactive: 0.002,inactive: -0.106,inactive: 0.06,inactive: -0.016,inactive: -0.045,inactive: -0.056,inactive: 0.029
ROCK2 (UniProt O75116),inactive: -0.033,inactive: -0.006,inactive: -0.05,inactive: -0.202,inactive: -0.064,inactive: 0.009,inactive: -0.091,inactive: 0.014,inactive: -0.008,inactive: 0.013
RPS3 (UniProt P23396),inactive: 0.219,inactive: -0.004,inactive: -0.009,inactive: 0.193,inactive: 0.063,inactive: -0.056,inactive: -0.132,inactive: -0.028,inactive: 0.075,inactive: -0.045
RPL39P5 (UniProt Q59GN2),inactive: 0.309,inactive: -0.046,inactive: 0.006,inactive: 0.129,inactive: 0.139,inactive: -0.026,inactive: -0.488,inactive: -0.128,inactive: 0.056,inactive: -0.165
RPP40 (UniProt O75818),inactive: 0.039,inactive: -0.083,inactive: -0.029,inactive: -0.031,inactive: 0.039,inactive: 0.009,inactive: -0.004,inactive: 0.017,inactive: 0.018,inactive: 0.001

# Single entries from the entries so far.
# Under log2 fold change (tipifarnib), RPL15 (UniProt P61313) shows inactive: 0.494
# Under log2 fold change [5], RPTOR (UniProt Q8N122) shows inactive: 0.009

# Reprinted at random: 2 entries already listed.
Target,log2 fold change (bafetinib),log2 fold change [1],log2 fold change (nilotinib),log2 fold change [2],log2 fold change (dasatinib),log2 fold change [3],log2 fold change [4],log2 fold change [5],log2 fold change (tipifarnib),log2 fold change (mubritinib)
RPL5 (UniProt P46777),inactive: 0.179,inactive: 0,inactive: 0.067,inactive: 0.118,inactive: 0.185,inactive: -0.017,inactive: -0.247,inactive: -0.127,inactive: 0.094,inactive: -0.163
RPL10A (UniProt P62906),inactive: 0.611,inactive: 0.036,inactive: 0.007,inactive: 0.321,inactive: 0.318,inactive: -0.022,inactive: -0.571,inactive: -0.219,inactive: 0.414,inactive: -0.342
